Data as given in paper PMC10425332.

Amino acid sequences for entries named in this document (tags omitted). Residues count along the entry.
UniProt P01127, 82-190: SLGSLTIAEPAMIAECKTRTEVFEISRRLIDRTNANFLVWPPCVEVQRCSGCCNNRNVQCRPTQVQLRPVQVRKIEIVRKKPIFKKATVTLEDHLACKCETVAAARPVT

Biological target: PDGF-BB (UniProt P01127)
Experiment: PAGE and fluorescence (release of strand D)
Conditions: Mg2+, indirect read-out; complexes annealed in 1x TAE/Mg2+ buffer, DNA complex about 0.5-0.6 uM; thrombin trigger 2 h at room temperature (cell experiments); commercial protein; label: C T-BHQ1, D 5'-FAM (fluorescence assay); folded or branched DNA

AATGGTCCTATGATTCCGTTTTTTTTTTTTGTCACTAGCTACTAGGTAGCTAGTGACGTTATTTTTTTTATGAGAGAGAGTGTGTCC / TAACGTCACTAGCTACCTTTTTTTTTTTTTTTTTTTTTTTTTTTTTTTTTTTTTTTT / GGACACACTCTCTCTCATTTTCAGGCTACGGCACGTAGAGCATCACCATGATCCTG / CAGGCTACGGCACGTAGAGCATCACCATGATCCTGTTTCGGAATCATAGGACCATT [complex-PDGF (C, D, A3, B3; PDGF aptamer on A3 and B3)]
binding result: binds

Construct, isoform or probe ends are uncertain for at least one entry. At least one verdict rests on a figure or table, not on a statement of the authors.
